# Test results: PubChem BioAssay (EPA / NIEHS)
# By UniProt entry, the sequences of proteins in these tests, tags left out. Where a name states a change or a piece, a line headed by the entry shows the natural chain unless it says otherwise.
# UniProt P03372, whole entry, looked up: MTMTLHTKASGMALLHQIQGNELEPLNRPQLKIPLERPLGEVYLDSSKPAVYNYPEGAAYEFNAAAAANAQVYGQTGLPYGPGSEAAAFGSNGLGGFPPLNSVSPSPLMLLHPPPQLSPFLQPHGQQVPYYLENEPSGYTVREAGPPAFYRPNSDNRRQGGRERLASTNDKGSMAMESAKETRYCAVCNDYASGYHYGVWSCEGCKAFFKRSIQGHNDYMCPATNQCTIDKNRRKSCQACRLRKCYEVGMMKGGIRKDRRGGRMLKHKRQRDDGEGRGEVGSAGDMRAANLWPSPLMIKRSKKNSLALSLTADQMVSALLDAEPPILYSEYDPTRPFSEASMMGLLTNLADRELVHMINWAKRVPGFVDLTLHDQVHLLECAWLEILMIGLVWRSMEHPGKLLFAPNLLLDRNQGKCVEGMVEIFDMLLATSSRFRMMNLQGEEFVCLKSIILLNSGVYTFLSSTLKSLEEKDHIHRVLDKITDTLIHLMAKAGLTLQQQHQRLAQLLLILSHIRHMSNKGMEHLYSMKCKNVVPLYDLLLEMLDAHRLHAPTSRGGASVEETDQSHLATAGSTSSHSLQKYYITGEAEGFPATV
# UniProt Q92731, whole entry, looked up: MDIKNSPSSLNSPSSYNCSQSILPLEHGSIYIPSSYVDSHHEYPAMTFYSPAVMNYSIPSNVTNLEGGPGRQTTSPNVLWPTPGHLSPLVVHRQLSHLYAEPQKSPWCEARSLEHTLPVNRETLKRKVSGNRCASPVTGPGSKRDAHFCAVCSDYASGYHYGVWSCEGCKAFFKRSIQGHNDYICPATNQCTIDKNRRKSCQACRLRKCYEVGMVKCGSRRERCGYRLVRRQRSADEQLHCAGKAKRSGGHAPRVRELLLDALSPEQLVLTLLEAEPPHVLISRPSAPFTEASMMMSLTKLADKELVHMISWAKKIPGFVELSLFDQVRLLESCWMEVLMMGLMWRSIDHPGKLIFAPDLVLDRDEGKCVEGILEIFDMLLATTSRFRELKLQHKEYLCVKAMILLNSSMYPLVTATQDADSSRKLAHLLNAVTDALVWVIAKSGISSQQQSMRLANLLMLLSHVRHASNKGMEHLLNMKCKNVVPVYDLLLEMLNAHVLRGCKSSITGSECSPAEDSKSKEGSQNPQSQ
# UniProt P28190, whole entry, looked up: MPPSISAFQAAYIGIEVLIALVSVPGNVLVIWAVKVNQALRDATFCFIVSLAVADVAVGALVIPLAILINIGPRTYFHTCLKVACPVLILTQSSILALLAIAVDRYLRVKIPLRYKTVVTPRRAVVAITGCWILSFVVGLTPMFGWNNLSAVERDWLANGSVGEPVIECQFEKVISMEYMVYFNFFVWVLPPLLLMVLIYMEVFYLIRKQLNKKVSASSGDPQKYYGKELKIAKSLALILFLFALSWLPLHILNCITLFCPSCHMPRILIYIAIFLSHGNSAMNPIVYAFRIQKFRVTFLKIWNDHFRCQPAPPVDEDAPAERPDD
# UniProt P10275: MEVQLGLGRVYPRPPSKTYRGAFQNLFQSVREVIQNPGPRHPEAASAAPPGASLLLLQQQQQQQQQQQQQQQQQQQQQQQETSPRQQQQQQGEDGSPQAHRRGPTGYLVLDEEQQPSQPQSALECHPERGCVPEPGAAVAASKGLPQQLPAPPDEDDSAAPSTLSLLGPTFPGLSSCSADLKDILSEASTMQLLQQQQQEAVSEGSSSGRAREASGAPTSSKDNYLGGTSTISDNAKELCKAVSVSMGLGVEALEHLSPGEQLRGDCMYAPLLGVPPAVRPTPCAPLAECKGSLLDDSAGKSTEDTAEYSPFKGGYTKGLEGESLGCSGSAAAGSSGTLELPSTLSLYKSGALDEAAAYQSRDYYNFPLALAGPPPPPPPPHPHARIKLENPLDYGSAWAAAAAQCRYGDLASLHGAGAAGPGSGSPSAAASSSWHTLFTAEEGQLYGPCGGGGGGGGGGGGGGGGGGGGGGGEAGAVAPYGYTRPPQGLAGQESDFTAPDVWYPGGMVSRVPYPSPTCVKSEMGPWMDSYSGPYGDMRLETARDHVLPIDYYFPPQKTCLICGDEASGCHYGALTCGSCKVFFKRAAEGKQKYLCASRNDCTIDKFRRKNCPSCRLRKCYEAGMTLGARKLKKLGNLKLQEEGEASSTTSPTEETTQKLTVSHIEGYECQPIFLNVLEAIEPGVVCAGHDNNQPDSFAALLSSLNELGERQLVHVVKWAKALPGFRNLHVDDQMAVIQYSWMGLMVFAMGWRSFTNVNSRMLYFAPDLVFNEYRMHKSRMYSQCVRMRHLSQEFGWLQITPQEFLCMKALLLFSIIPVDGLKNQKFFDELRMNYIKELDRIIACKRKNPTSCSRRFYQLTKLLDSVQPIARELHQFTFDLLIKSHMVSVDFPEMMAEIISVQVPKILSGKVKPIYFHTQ
# UniProt P04799: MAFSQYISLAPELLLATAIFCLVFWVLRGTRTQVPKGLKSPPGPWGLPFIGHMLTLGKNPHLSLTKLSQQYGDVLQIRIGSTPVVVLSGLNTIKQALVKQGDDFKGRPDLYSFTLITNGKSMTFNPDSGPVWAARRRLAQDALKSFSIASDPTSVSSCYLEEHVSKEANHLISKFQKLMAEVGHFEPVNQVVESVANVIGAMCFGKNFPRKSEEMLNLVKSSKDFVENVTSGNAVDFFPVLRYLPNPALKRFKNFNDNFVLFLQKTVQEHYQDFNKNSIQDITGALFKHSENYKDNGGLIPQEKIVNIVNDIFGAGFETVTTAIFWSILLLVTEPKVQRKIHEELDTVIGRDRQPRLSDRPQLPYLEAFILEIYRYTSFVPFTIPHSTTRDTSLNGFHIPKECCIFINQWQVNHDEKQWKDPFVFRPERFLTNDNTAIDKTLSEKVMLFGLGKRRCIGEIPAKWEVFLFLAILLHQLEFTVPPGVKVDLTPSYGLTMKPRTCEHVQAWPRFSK
# UniProt O15379: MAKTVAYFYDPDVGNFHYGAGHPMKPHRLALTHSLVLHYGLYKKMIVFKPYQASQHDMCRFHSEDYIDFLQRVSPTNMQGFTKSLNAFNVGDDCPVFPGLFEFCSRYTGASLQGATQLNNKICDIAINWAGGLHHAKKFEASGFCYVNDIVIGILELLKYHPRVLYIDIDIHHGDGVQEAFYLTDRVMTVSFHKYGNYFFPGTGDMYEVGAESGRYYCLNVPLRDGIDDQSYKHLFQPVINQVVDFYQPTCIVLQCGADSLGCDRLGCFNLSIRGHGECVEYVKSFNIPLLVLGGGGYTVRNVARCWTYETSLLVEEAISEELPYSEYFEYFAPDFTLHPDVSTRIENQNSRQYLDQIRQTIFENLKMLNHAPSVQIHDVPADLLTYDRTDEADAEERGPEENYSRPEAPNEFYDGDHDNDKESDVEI
# UniProt Q12923: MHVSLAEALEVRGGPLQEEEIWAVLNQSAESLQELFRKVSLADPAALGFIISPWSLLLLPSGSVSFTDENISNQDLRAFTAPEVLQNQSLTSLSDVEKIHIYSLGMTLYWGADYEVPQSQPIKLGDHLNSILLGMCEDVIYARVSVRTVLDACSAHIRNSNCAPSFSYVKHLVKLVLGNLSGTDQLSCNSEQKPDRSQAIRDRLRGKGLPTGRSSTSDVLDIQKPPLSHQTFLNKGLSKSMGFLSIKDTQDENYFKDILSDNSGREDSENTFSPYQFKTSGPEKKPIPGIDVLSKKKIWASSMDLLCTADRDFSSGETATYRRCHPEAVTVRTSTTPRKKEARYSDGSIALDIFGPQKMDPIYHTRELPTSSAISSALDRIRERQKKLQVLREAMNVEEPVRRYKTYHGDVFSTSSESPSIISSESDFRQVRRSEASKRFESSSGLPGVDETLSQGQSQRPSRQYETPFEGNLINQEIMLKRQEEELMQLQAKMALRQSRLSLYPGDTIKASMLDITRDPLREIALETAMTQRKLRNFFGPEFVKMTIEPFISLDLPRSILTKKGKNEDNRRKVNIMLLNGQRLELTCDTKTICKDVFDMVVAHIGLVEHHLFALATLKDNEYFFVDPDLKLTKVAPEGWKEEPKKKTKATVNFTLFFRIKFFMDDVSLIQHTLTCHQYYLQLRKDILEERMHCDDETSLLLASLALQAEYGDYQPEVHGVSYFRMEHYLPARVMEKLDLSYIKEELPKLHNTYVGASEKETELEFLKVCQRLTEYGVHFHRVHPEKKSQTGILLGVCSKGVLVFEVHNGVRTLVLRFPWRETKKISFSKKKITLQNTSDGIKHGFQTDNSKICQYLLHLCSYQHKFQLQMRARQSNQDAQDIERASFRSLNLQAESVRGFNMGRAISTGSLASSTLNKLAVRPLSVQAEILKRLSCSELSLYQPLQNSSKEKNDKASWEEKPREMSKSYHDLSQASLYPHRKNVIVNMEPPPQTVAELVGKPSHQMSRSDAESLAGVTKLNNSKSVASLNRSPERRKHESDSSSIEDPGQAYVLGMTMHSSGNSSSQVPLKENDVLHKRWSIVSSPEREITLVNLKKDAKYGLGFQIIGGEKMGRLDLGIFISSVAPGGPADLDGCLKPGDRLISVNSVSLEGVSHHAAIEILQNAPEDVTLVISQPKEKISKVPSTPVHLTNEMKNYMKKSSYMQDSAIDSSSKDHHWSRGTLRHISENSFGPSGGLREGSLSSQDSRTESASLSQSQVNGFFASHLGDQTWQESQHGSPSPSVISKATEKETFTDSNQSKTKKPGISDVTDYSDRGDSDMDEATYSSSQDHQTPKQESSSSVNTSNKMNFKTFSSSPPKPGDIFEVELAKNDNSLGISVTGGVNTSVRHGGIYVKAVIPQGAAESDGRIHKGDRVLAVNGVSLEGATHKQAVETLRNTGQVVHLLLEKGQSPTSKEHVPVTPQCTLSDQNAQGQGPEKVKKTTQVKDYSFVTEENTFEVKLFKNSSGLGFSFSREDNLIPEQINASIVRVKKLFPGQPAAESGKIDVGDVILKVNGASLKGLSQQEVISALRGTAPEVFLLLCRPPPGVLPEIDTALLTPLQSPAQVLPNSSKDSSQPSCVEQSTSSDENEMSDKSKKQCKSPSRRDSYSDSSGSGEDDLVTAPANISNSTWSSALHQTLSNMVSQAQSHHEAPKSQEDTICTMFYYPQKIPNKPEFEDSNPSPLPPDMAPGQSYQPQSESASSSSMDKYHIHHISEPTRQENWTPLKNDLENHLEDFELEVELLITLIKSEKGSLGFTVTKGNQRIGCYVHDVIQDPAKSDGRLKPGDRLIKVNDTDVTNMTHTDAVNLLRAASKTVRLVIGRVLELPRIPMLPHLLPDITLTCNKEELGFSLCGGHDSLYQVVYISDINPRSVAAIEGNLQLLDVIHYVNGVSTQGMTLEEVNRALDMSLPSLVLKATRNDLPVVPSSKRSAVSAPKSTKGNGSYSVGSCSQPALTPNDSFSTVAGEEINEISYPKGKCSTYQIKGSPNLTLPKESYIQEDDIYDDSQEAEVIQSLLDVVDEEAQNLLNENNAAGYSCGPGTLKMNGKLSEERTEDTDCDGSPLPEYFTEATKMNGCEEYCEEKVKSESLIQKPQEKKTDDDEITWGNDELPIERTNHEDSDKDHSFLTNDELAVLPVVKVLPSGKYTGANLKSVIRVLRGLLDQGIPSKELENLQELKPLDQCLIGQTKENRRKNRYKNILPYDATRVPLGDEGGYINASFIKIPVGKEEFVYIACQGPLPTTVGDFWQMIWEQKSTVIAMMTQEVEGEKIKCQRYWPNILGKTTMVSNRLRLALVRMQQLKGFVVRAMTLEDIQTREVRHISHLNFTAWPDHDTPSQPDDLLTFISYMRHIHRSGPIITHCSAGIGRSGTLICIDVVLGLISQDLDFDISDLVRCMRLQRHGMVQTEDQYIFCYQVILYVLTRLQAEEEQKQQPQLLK
# UniProt Q96EB6: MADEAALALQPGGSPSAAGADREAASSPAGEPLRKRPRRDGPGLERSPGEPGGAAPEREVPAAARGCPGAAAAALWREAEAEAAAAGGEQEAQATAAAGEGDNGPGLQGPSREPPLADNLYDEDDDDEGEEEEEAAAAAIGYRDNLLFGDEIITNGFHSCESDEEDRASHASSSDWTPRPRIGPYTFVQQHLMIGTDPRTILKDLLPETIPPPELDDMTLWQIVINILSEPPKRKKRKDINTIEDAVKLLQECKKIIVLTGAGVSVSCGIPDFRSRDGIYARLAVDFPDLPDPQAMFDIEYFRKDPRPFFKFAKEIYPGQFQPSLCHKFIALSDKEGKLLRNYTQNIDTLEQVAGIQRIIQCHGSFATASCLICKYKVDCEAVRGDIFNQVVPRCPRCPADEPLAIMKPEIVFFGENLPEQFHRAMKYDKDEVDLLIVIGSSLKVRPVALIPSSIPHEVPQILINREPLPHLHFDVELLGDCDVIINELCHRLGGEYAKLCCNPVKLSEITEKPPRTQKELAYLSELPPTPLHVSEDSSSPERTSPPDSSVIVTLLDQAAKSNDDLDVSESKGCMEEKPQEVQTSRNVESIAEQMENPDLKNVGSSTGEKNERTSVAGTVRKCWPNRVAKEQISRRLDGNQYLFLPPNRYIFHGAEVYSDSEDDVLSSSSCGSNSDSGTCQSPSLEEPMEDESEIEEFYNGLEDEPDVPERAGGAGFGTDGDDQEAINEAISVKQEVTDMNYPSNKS
# Several values for one entry are separate records, joined by “and”; a condition that tells them apart may be missing. Equal values may be shown once. The inconclusive results got no clear call from the source; some entries with a clear call stand among them for comparison. For some of these results: Potencies of inconclusive entries are doubtful fits and often do not repeat. Activity calls are given as the source filed them. The calls were made as follows: active = hit-call score of the fitted dose curve at least 0.9, where 1 is the maximum; inconclusive = response in the unintended direction; inactive = score below 0.9.
# Tests used:
# [1] = molecular target: Estrogen receptor (Homo sapiens) + Estrogen receptor beta (Homo sapiens) (UniProt P03372+Q92731); assay: OT_ER_ERaERb_0480: Odyssey Thera (OT) 8-hour HEK293T Protein-Complementation Assay for Estrogen Receptor-alpha/-beta Heterodimer (AID 2283352)
# Method in brief: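 HEK293T cells expressing ER-alpha/ER-beta LBD fusions to complementary reporter fragments were dosed with compound for 8 hours. Heterodimer formation was read as increased nuclear (agonist) or nuclear plus cytoplasmic (antagonist) mean fluorescence intensity versus DMSO vehicle.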
# [2] = system: frog Estrogen Receptor (ER), gene 398734; assay: ATG_frER1_XSP2: Attagene TRANS-FACTORIAL Multi-Species (XSP2) HepG2 Assay for frog Estrogen Receptor (ER) (AID 2283821);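 also: hits raise reporter mRNA above DMSO baseline so potency means agonist or activator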
# Method in brief: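 Reporter mRNA induction, detected as fluorescence after RT-PCR and capillary electrophoresis, is the endpoint; activity is fitted upward against DMSO. Cells are human liver HepG2 carrying transfected NR-Gal4 chimeras with GAL4-UAS-driven reporters, harvested 24 h post-dosing.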
# [3] = CCTE_Mundy_HCI_hN2_NOG_NeuronCount: CCTE's Neurite Outgrowth Assay in human hN2 cells for Neuron Count, Mundy Lab (AID 2284221)
# Method in brief: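 Read-out is the number of betaIII-tubulin-positive neurons imaged by automated high-content analysis, with DMSO as negative control.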
# [4] = TAMU_HCS_1.5hr_SingleDonor1434_Cytotoxicity: Cytotoxicity Assessment using High-content Screening (HCS) Fluorescent Imaging for the Texas A&M University (TAMU) 1.5-hr Human Induced Pluripotent Stem Cell (iPSC)-derived Cardiotoxicity Assay (AID 2284234)
# Method in brief: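 Nuclear counts from Hoechst 33342 imaging define cytotoxicity here, with EC10 (10% cell-count loss relative to DMSO) as point of departure. iPSC cardiomyocytes received 0.2-100 uM test chemical in 0.5% DMSO for 1.5 h at 37 C.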
# [5] = IUF_NPC2-5_cytotoxicity_72hr: Cytotoxicity Assessment at 72 hours in the Leibniz Research Institute for Environmental Medicine (IUF) Neural Progenitor Cell Migration and Differentiation Assay for Cytotoxicity (NPC2-5) (AID 2284306);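 also: LDH release into supernatant measured by resorufin fluorescence marking membrane damage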
# Method in brief: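 hNPC spheres (0.3 mm), PDL/laminin, DMEM/F12 3:1 + 1% N2; cpd from d0, 7 concs + SC, DMSO max 0.1%; half-medium refresh d3. Readout: supernatant LDH via resorufin fluorescence (RFU), 72 h; gain-of-signal fit.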
# [6] = CCTE_Mundy_HCI_iCellGluta_NOG_NeuriteCount: CCTE's Neurite Outgrowth Assay in iCellGluta cells for Neurite Count, Mundy Lab (AID 2284342);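 also: chemical exposure about 48 hours starting 2 hours after plating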
# [7] = molecular target: Adenosine receptor A1 (Bos taurus) (UniProt P28190); assay: NVS_GPCR_bAdoR_NonSelective: NovaScreen (NVS) G Protein-Coupled Receptor Assay for bovine Adenosine Receptor (AdoR), Non-selective Binding (AID 2283244)
# Method in brief: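 Cell-free binding with membranes from bovine striatum: radioligand displaced by test chemical, read after 1 h by filtration and scintillation. Single-point 25 uM duplicate primary, 50 uM top concentration in follow-up curves, DMSO baseline.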
# [8] = molecular target: Nucleoli Translocation, AR (gene 367) (UniProt P10275); assay: UPITT_HCI_U2OS_AR_TIF2_Nucleoli_Antagonist: University of Pittsburgh U2OS Androgen Receptor-Transcriptional Intermediary Factor 2 (AR-TIF2) Antagonism High Content Imaging Assay for Nucleoli Translocation (AID 2283997)
# Method in brief: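 Compounds are added at 20 uM final concentration in 0.2% DMSO to U2OS cells carrying AR-RFP and TIF2-GFP fusions. Nucleolar AR-RFP fluorescence is then quantified by automated imaging. Antagonism is fitted positively against DHT baseline.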
# [9] = molecular target: Ratio of Nucleoli Translocation and Cytoplasm, AR (gene 367) (UniProt P10275); assay: UPITT_HCI_U2OS_AR_TIF2_Nucleoli_Cytoplasm_Ratio_Antagonist: University of Pittsburgh U2OS Androgen Receptor-Transcriptional Intermediary Factor 2 (AR-TIF2) Antagonism High Content Imaging Assay for Ratio of Nucleoli Translocation and Cytoplasm (AID 2283999);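 also: antagonists lower the DHT-driven ratio of nucleolar to cytoplasmic red signal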
# Method in brief: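 This antagonist-mode endpoint tracks AR-RFP localisation, the nucleolus-to-cytoplasm intensity ratio, in TIF2-GFP-coexpressing U2OS cells. DMSO stays at or below 0.5%; testing spans 20 uM single-dose and 0.195–50 uM series, with DHT setting the activity baseline.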
# [10] = molecular target: Ratio of Nucleoli Translocation and Cytoplasm, AR (gene 367) (UniProt P10275); assay: UPITT_HCI_U2OS_AR_TIF2_Nucleoli_Cytoplasm_Ratio_Agonist: University of Pittsburgh U2OS Androgen Receptor-Transcriptional Intermediary Factor 2 (AR-TIF2) Agonism High Content Imaging Assay for Ratio of Nucleoli Translocation and Cytoplasm (AID 2284000);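 also: hits raise the red nucleolar to cytoplasm ratio above vehicle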
# Method in brief: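 Human osteosarcoma U2OS line, AR-RFP plus TIF2-GFP; compounds 0.195–50 uM final, 0.5% DMSO. Readout: nucleolar/cytoplasmic RFP ratio by HCI, positive direction vs DMSO baseline.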
# [11] = molecular target: human Adenosine A2a Receptor (AdoRA2a), ADORA2A (gene 135) (UniProt P29274); assay: NVS_GPCR_hAdoRA2a: NovaScreen (NVS) G Protein-Coupled Receptor Assay for human Adenosine A2a Receptor (AdoRA2a) (AID 2283256)
# Method in brief: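 HEK293-derived receptor preparation, radioligand displacement, 1.5 h, filtration + scintillation read. Loss of bound signal scored vs DMSO. Single-point 25 uM in duplicate first, then concentration-response for actives.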
# [12] = CCTE_Shafer_MEA_dev_active_electrodes_number: CCTE's Neural Network Formation Assay for Number of Active Electrodes, Shafer Lab (AID 2284040);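 also: potency for loss of active electrodes versus DMSO so lower counts are hits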
# Method in brief: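 Developing rat cortical networks on MEAs, exposed DIV 0–12. Value is the AUC of active-electrode counts (≥5 spikes/min) from days 5, 7, 9, 12, relative to DMSO.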
# [13] = molecular target: rat CYP1A2, Cyp1a2 (gene 24297) (UniProt P04799); assay: NVS_ADME_rCYP1A2: NovaScreen (NVS) CYP450-related Enzyme Activity (ADME) Assay for rat CYP1A2 (AID 2283115)
# Method in brief: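 Primary testing ran in duplicate at 10 uM, with actives re-tested across concentration series. Fluorescence intensity from substrate turnover by recombinant protein, measured 1 hour post-dosing, with signal loss scored against acetonitrile vehicle.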
# [14] = TAMU_PeakParms_SingleDonor1434_QT: Texas A&M University (TAMU) 1.5-hr Human Induced Pluripotent Stem Cell (iPSC)-derived Cardiomyocytes Calcium (Ca+2) Flux Assay for Cardiotoxicity: QT (decay-rise ratio) (AID 2284235)
# Method in brief: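 Decay/rise ratio of calcium-flux fluorescence scored after 90 min exposure (37C) of donor 1434 iPSC cardiomyocytes to 0.2–100 uM (0.5% DMSO). Beat-cessation and severe-notch points removed; POD is EC05, a 5% rise over DMSO.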
# [15] = TAMU_PeakParms_SingleDonor1434_Asystole: Texas A&M University (TAMU) 1.5-hr Human Induced Pluripotent Stem Cell (iPSC)-derived Cardiomyocytes Calcium (Ca+2) Flux Assay for Cardiotoxicity: Asystole (quiescence of beating) (AID 2284328)
# Method in brief: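 Donor 1434 iPSC-cardiomyocytes exposed 90 min at 37C, 5% CO2, to 0.2, 1, 10 and 100 uM in 0.5% DMSO. Ca2+ dye fluorescence gave average peak frequency; POD is EC95, a 95% beat-rate drop versus controls.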
# [16] = CCTE_Mundy_HCI_iCellGluta_NOG_NeuriteLength: CCTE's Neurite Outgrowth Assay in iCellGluta cells for Neurite Length, Mundy Lab (AID 2284318)
# Method in brief: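 Automated high-content imaging of betaIII-tubulin (Alexa Fluor-488) and Hoechst-stained cells gave neurite length, normalized to the DMSO baseline.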
# [17] = molecular target: Histone deacetylase 3 (Homo sapiens) (UniProt O15379); assay: NVS_ENZ_hHDAC3: NovaScreen (NVS) Enzymatic Assay for human Histone Deacetylase 3 (HDAC3) (AID 2283163)
# Method in brief: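 Cell-free enzyme format: loss of fluorescent product after mobility-shift separation, 1 h incubation, recombinant human HDAC3. Single 25 uM duplicate screen first, then concentration series to a 50 uM top for hits; DMSO as baseline.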
# [18] = molecular target: Tyrosine-protein phosphatase non-receptor type 13 (Homo sapiens) (UniProt Q12923); assay: NVS_ENZ_hPTPN13: NovaScreen (NVS) Enzymatic Assay for human Protein Tyrosine Phosphatase Non-receptor Type 13 (PTPN13) (AID 2283205)
# Method in brief: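 Screened first at a single 25 uM in duplicate; compounds passing the threshold (e.g. 30% inhibition) were rerun in concentration series, top 50 uM. Recombinant enzyme, fluorescent substrate, mobility-shift separation, 0.5 h read. Data fitted as inhibition relative to DMSO.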
# [19] = molecular target: human Sirtuin 1 (SIRT1), SIRT1 (gene 23411) (UniProt Q96EB6); assay: NVS_ENZ_hSIRT1: NovaScreen (NVS) Enzymatic Assay for human Sirtuin 1 (SIRT1) (AID 2283219)
# Method in brief: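 Cell-free recombinant SIRT1 with a fluorescent substrate; substrate and product separated by electrophoretic mobility shift and read by fluorescence intensity, 1 h after dosing. Primary screen at 25 uM in duplicate; hits re-run in concentration-response up to 50 uM, relative to DMSO.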
# [20] = molecular target: rat Androgen Receptor (AR), Ar (gene 24208) (UniProt P15207); assay: NVS_NR_rAR: NovaScreen (NVS) Nuclear Receptor Binding Assay for rat Androgen Receptor (AR) (AID 2283366)
# Method in brief: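 Actives from a duplicate single-concentration (25 uM) primary run went on to concentration series. Displacement of radioligand was counted by filtration and scintillation, 18 h post-dose, using prostate extracts from testosterone-pretreated rats, with DMSO as baseline.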
compound,measurement,setting,value
CC(C)(C)c1ccc(S)cc1,AC50,[1],inconclusive: 3.2 µM
same,AC50,[2],inconclusive: 100 µM
O=C1NS(=O)(=O)c2ccccc21,AC50,[3],inconclusive: 0.0259 µM
same,outcome,[4],inactive
same,outcome,[5],inactive
same,AC50,[6],inconclusive: 50 µM
CCCCCC(=O)O,AC50,[7],inconclusive: 25 µM
same,AC50,[8],inconclusive: 50 µM
same,AC50,[9],inconclusive: 0.187 µM
same,AC50,[10],inconclusive: 50 µM
O=c1c2ccccc2oc2ccccc12,outcome,[11],inactive
Cc1noc(NS(=O)(=O)c2ccc(N)cc2)c1C,AC50,[12],inconclusive: 15 µM
c1ccc2c(c1)c1cccc3ccc4cccc2c4c31,outcome,[13],inactive
same,AC50,[14],inconclusive: 50 µM
same,AC50,[15],inconclusive: 9.92 µM
CC1(C)S[C@@H]2[C@H](NC(=O)[C@H](N)c3ccccc3)C(=O)N2[C@H]1C(=O)O,AC50,[16],inconclusive: 0.00294 µM
COCCOc1cc2cc(C(=O)NC3CCN(C(C)C)CC3)n(CC(=O)Nc3ccc(Cl)cn3)c2cn1,outcome,[17],inactive
CC/C(=C(\c1ccccc1)c1ccc(OCCN(C)C)cc1)c1ccccc1,AC50,[18],active: 12.1 µM
O=C(O)c1cc(N=Nc2ccc(S(=O)(=O)Nc3ccccn3)cc2)ccc1O,AC50,[19],inconclusive: 25 µM
S=C([S-])NCCNC(=S)[S-].[Mn+2],AC50,[19],active: 15.4 µM
C[C@]12CC[C@@H]3c4ccc(O)cc4CC[C@H]3[C@@H]1CCC2=O,AC50,[20],inconclusive: 82.6 nM and inconclusive: 1.07 µM
same,outcome,[20],inactive

# 2 consecutive records from above, quoted:
compound,measurement,setting,value
O=C1NS(=O)(=O)c2ccccc21,outcome,[4],inactive
same,outcome,[5],inactive
